For this test, the system named is human neural stem cells (hNSCs). Description: neuronal differentiation of cultured human neural stem cells (TUJ-1 staining), agents alone and in combination.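 Note: cells kept in mitogen-free test media, with growth-factor-free basal medium as the negative control.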 Particulars: read-out: EC50 for neuronal differentiation, agent alone; compound run individually; % of neuronal positive control, basal media subtracted.

As usually defined, the EC50 is the concentration needed to bring the measured effect to its halfway point. For `NCCCC(=O)O` [GABA], the EC50 stood at 5.46 µM.

(Values after patent publication US20110046090A1, “MODULATION OF NEUROGENESIS WITH GABA AGENTS AND GABA ANALOGS” (BrainCells Inc., priority 2005, published 2011).)
